Data reported in PMC4549032.
No constants are given. Whether binding was seen depends on the method and setting. In cells and extracts the contact can be indirect. Some results given as binding are weak or reduced against the parent protein; the word gives no strength. One block for each substance: values may come before it.

Amino acid sequences for entries named in this document (tags omitted).
UniProt Q8VI67: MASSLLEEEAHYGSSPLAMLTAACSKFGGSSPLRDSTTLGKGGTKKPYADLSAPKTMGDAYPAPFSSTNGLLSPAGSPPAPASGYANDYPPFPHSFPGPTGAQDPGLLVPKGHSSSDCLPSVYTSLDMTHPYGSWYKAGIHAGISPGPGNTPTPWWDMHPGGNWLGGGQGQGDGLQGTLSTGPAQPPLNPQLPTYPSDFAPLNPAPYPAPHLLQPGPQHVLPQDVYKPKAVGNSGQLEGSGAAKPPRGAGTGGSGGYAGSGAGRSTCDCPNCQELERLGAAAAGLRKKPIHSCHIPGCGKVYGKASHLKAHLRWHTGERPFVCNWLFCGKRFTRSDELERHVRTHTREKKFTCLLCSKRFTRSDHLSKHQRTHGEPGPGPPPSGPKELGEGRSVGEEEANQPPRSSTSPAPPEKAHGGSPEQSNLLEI
UniProt Q9WUD1: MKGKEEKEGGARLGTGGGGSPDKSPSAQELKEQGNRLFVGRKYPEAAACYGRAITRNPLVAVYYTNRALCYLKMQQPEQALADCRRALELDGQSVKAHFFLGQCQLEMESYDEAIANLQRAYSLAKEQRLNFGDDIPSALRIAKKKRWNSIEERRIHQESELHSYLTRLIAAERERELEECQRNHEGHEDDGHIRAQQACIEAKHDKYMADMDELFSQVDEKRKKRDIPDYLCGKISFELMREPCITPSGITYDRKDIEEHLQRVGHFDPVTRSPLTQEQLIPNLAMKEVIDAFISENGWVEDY

Experiments:
[1] = target: Flag-tagged Osx (osterix), wild type (mouse) (UniProt Q8VI67); assay: co-IP; 293T cells transfected with Flag-Osx and HA-CHIP; IP with anti-Flag, blot with anti-HA
[2] = target: Flag-tagged Osx (osterix), wild type (mouse) (UniProt Q8VI67); assay: co-IP; 293T cells co-expressing Flag-Osx and Myc-CHIP, lysates 48 h after transfection; IP with anti-Flag, blot with anti-Myc; with 20 uM MG132 for 6 hrs
[3] = target: Flag-tagged Osx (osterix), wild type (mouse) (UniProt Q8VI67); assay: co-IP; Flag-Osx WT or K55R and K386R with Myc-CHIP; blot read after short and long exposure; told only in the discussion, set-up not described
[4] = target: endogenous Osx (osterix) of MC3T3-E1 cells (mouse (endogenous in MC3T3-E1)) (UniProt Q8VI67); assay: co-IP; MC3T3-E1 cells with Myc-CHIP; endogenous Osx precipitated with anti-Osx antibody, Myc-CHIP found in the precipitate
[5] = target: endogenous Osx (osterix) of MC3T3-E1 cells (mouse (endogenous in MC3T3-E1)) (UniProt Q8VI67); assay: co-IP; endogenous CHIP and endogenous Osx in MC3T3 cells

binding [1]: binds
Substance: HA-tagged CHIP (C terminus of Hsc70-interacting protein), in 293T cells (from UniProt Q9WUD1 1-304) (enzyme)

binding [2]: binds
binding [3]: binds
Substance: Myc-tagged CHIP (C terminus of Hsc70-interacting protein), in HEK293T cells (from UniProt Q9WUD1 1-304) (enzyme)

binding [4]: binds
Substance: Myc-tagged CHIP (C terminus of Hsc70-interacting protein), in MC3T3-E1 cells (from UniProt Q9WUD1 1-304) (enzyme)

binding [5]: binds
Substance: endogenous CHIP (C terminus of Hsc70-interacting protein) of MC3T3 cells (from UniProt Q9WUD1 1-304) (enzyme)
